The values that follow come from article doi:10.1101/2024.08.04.605933.

Amino acid sequences for entries named in this document (tags omitted).
UniProt Q07812: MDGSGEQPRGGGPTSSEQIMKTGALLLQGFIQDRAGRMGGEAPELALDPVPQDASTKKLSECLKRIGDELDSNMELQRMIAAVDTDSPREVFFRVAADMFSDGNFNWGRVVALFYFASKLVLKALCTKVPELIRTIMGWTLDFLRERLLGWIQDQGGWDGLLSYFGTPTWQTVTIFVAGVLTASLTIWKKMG

The target of this experiment is T1, voltage dependent anion channel 2 (VDAC2) (human (endogenous in HeLa)) (UniProt P45880).
T1 sequence: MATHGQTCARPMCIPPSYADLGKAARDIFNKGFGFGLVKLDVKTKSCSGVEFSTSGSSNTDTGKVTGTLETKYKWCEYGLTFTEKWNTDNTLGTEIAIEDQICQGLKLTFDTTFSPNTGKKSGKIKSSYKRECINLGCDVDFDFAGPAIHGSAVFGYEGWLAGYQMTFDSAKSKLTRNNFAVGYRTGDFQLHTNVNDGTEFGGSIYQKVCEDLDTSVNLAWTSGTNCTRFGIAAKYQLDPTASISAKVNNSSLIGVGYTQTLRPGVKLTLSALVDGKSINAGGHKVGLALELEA
The experiment is described as follows: native gel or EMSA.

These are yes or no findings as the source states them, for the method shown. Some entries that bind do so weakly or less than the wild type. Where a sequence is shown, tags or fusion partners need not be part of it.

“BCL-2-associated X protein (BAX) (from UniProt Q07812 1-192)”: the binding result is recorded as “binds”.
